Measurements reported in PubChem BioAssay AID248 (DTP/NCI, 2004).
The list does not hold the whole screen: it is rich in T/C values a quarter to a half above the control, in often repeated tests (any T/C) and in doses without a T/C. Further doses and runs are listed elsewhere. T/C is the treated group as % of the vehicle group. Some entries give survivors of the animals treated and no T/C: the source holds a T/C of zero for them, seemingly a mark for toxic or unscored doses. Some doses without a T/C left all or most animals alive at the check, yet need not have been tolerated: survival well below the control is almost never listed, so the zero probably covers shortened survival too. Survivors were counted at the toxicity check, usually on the fifth day, unless a day is given; later deaths do not show. Schedules are NCI's codes, read here as Q, the interval in days (D) or hours (H), X, the number of doses. Some entries hold several experiments; the results are listed from low to high. Some schedule codes hold Z or #, which are not explained here. Where survival is the endpoint, the PubChem record calls one and a half times the control and up active, and a quarter to a half above the control has no call in these data; cut-offs in other NCI protocols can differ. Some T/C values are followed by the survivors on the day toxicity was checked, most often the fifth; where none is given, no animal had died by that day.

Test system: L1210 leukemia ip in BDF1 mice, survival T/C
Experiment: NCI In Vivo Anticancer Drug Screen. Data for tumor model L1210 Leukemia (intraperitoneal) in B6D2F1 (BDF1) mice
Conditions: higher T/C = longer survival
[1] = T/C endpoint: mean survival time, dose: 100.0 mg/kg/injection, schedule: Q04DX003 (ip), vehicle: saline with Tween-80
[2] = T/C endpoint: mean survival time, dose: 200.0 mg/kg/injection, schedule: Q04DX003 (ip), vehicle: saline with Tween-80
[3] = T/C endpoint: mean survival time, dose: 400.0 mg/kg/injection, schedule: Q04DX003 (ip), vehicle: saline with Tween-80
[4] = T/C endpoint: mean survival time, dose: 200.0 mg/kg/injection, schedule: Q01DX009 (ip), vehicle: Klucel (hydroxypropylcellulose) (HPC)
[5] = T/C endpoint: mean survival time, dose: 100.0 mg/kg/injection, schedule: Q03HX016 (oral), vehicle: saline with Tween-80

## c1cc2ccsc2cn1
[1]
  survivor count: 2 of 6
[2]
  survivor count: 2 of 6
[3]
  survivor count: 0 of 6

## CN1CCC2(C1)C1CC3CC(C1)CC2C3 (stereo unspecified)
T/C endpoint: mean survival time, dose: 150.0 mg/kg/injection, schedule: Q01DX001 (ip), vehicle: saline
  survivor count: 2 of 6
T/C endpoint: mean survival time, dose: 300.0 mg/kg/injection, schedule: Q01DX001 (ip), vehicle: saline
  survivor count: 0 of 6

## CC(C)(C)c1cccc(C(C)(C)C)c1OC(=O)NS(=O)(=O)c1ccccc1
T/C endpoint: mean survival time, dose: 100.0 mg/kg/injection, schedule: Q04DX003 (ip), vehicle: acetone
  survivor count: 6 of 6
T/C endpoint: mean survival time, dose: 170.0 mg/kg/injection, schedule: Q01DX009 (ip), vehicle: Klucel (hydroxypropylcellulose) (HPC)
  survivor count: 3 of 6
T/C endpoint: mean survival time, dose: 200.0 mg/kg/injection, schedule: Q04DX003 (ip), vehicle: acetone
  survivor count: 0 of 6
T/C endpoint: mean survival time, dose: 400.0 mg/kg/injection, schedule: Q04DX003 (ip), vehicle: acetone
  survivor count: 0 of 6

## Clc1ccccc1-c1ncc2cnccn12
[2]
  survivor count: 4 of 6
[3]
  survivor count: 0 of 6

## IC1CCCOC1[n+]1ccccc1 (stereo unspecified)
[1]
  survivor count: 1 of 6
[2]
  survivor count: 0 of 6
[3]
  survivor count: 0 of 6

## Cc1ccc(C(C)C)c(OCC[N+]2(CCOc3cc(C)ccc3C(C)C)CC=CC2)c1
T/C endpoint: mean survival time, dose: 100.0 mg/kg/injection, schedule: Q04DX002 (ip), vehicle: saline with Tween-80
  survivor count: 0 of 3
T/C endpoint: mean survival time, dose: 200.0 mg/kg/injection, schedule: Q04DX002 (ip), vehicle: saline with Tween-80
  survivor count: 0 of 3
T/C endpoint: mean survival time, dose: 400.0 mg/kg/injection, schedule: Q04DX002 (ip), vehicle: saline with Tween-80
  survivor count: 0 of 3

## CCOC(=O)/C(=C/c1ccc(C)cc1)P(=O)(OCC)OCC
T/C endpoint: mean survival time, dose: 200.0 mg/kg/injection, schedule: Q01DX001 (ip), vehicle: saline
  survivor count: 0 of 4
T/C endpoint: mean survival time, dose: 400.0 mg/kg/injection, schedule: Q01DX001 (ip), vehicle: saline
  survivor count: 0 of 4

## COc1ccc(OC)c(CC(Cl)(C#N)C#N)c1
T/C endpoint: mean survival time, dose: 50.0 mg/kg/injection, schedule: Q01DX009 (ip), vehicle: Klucel (hydroxypropylcellulose) (HPC)
  survivor count: 6 of 6
T/C endpoint: mean survival time, dose: 100.0 mg/kg/injection, schedule: Q01DX009 (ip), vehicle: Klucel (hydroxypropylcellulose) (HPC)
  survivor count: 2 of 6
T/C endpoint: mean survival time, dose: 100.0 mg/kg/injection, schedule: Q04DX003 (ip), vehicle: Klucel (hydroxypropylcellulose) (HPC)
  survivor count: 5 of 6
[4]
  survivor count: 0 of 6
T/C endpoint: mean survival time, dose: 400.0 mg/kg/injection, schedule: Q04DX003 (ip), vehicle: Klucel (hydroxypropylcellulose) (HPC)
  survivor count: 0 of 6

## O=C1CN=C(c2ccc[nH]2)c2cc(Cl)ccc2N1
T/C endpoint: mean survival time, dose: 25.0 mg/kg/injection, schedule: Q03HX024 (ip), vehicle: other
  T/C: 137 % of control
T/C endpoint: mean survival time, dose: 28.5 mg/kg/injection, schedule: Q01DX009 (ip), vehicle: clinical formulation
  survivor count: 3 of 10
T/C endpoint: mean survival time, dose: 57.0 mg/kg/injection, schedule: Q01DX009 (ip), vehicle: clinical formulation
  survivor count: 0 of 10
T/C endpoint: mean survival time, dose: 75.0 mg/kg/injection, schedule: Q01DX015 (ip), vehicle: other
  T/C: 141 % of control
T/C endpoint: mean survival time, dose: 100.0 mg/kg/injection, schedule: Q01DX009 (ip), vehicle: saline with Tween-80, evaluated on day 30
  T/C: 126 % of control
T/C endpoint: mean survival time, dose: 100.0 mg/kg/injection, schedule: Q01DX009 (ip), vehicle: saline with Tween-80, evaluated on day 40
  T/C: 129 % of control
T/C endpoint: mean survival time, dose: 100.0 mg/kg/injection, schedule: Q01DX009 (ip), vehicle: water
  T/C: 140 % of control
T/C endpoint: mean survival time, dose: 100.0 mg/kg/injection, schedule: Q03HX008 (oral), vehicle: saline with Tween-80
  T/C: 136 % of control [8 of 10 alive]
[5]
  T/C: 140 % of control
  survivor count: 6 of 10
T/C endpoint: mean survival time, dose: 100.0 mg/kg/injection, schedule: Q03HX024 (oral), vehicle: saline with Tween-80
  T/C: 147 % of control [8 of 10 alive]
T/C endpoint: mean survival time, dose: 114.0 mg/kg/injection, schedule: Q01DX009 (ip), vehicle: clinical formulation
  survivor count: 0 of 10
T/C endpoint: mean survival time, dose: 200.0 mg/kg/injection, schedule: Q01DX006 (iv), vehicle: other
  survivor count: 2 of 10
[4]
  T/C: 130 % of control
T/C endpoint: mean survival time, dose: 200.0 mg/kg/injection, schedule: Q01DX009 (ip), vehicle: saline with Tween-80, evaluated on day 30
  T/C: 140 % of control
T/C endpoint: mean survival time, dose: 200.0 mg/kg/injection, schedule: Q01DX009 (ip), vehicle: saline with Tween-80, evaluated on day 40
  T/C: 140 % of control
T/C endpoint: mean survival time, dose: 200.0 mg/kg/injection, schedule: Q01DX009 (ip), vehicle: water
  T/C: 144 % of control [8 of 10 alive]
T/C endpoint: mean survival time, dose: 200.0 mg/kg/injection, schedule: Q03HX008 (oral), vehicle: saline with Tween-80
  survivor count: 0 of 8 and 2 of 10
T/C endpoint: mean survival time, dose: 200.0 mg/kg/injection, schedule: Q03HX016 (oral), vehicle: saline with Tween-80
  survivor count: 0 of 8 and 3 of 10
T/C endpoint: mean survival time, dose: 200.0 mg/kg/injection, schedule: Q03HX024 (oral), vehicle: saline with Tween-80
  survivor count: 0 of 8 and 1 of 10
T/C endpoint: mean survival time, dose: 360.0 mg/kg/injection, schedule: Q01DX007 (oral), vehicle: other
  T/C: 127 % of control [8 of 10 alive]
T/C endpoint: mean survival time, dose: 400.0 mg/kg/injection, schedule: Q01DX009 (ip), vehicle: saline with Tween-80
  survivor count: 4 of 7 and 6 of 6
T/C endpoint: mean survival time, dose: 400.0 mg/kg/injection, schedule: Q03HX008 (oral), vehicle: saline with Tween-80
  survivor count: 0 of 8
T/C endpoint: mean survival time, dose: 400.0 mg/kg/injection, schedule: Q03HX016 (oral), vehicle: saline with Tween-80
  survivor count: 0 of 8
T/C endpoint: mean survival time, dose: 400.0 mg/kg/injection, schedule: Q03HX024 (oral), vehicle: saline with Tween-80
  survivor count: 0 of 8
T/C endpoint: mean survival time, dose: 400.0 mg/kg/injection, schedule: Q04DX003 (oral), vehicle: saline with Tween-80
  survivor count: 5 of 8
T/C endpoint: mean survival time, dose: 450.0 mg/kg/injection, schedule: Q01DX Z (ip), vehicle: carboxymethylcellulose (CMC)
  survivor count: 0 of 6
T/C endpoint: mean survival time, dose: 540.0 mg/kg/injection, schedule: Q01DX007 (oral), vehicle: other
  survivor count: 3 of 10
T/C endpoint: mean survival time, dose: 800.0 mg/kg/injection, schedule: Q01DX001 (oral), vehicle: saline with Tween-80
  survivor count: 4 of 7
T/C endpoint: mean survival time, dose: 800.0 mg/kg/injection, schedule: Q01DX009 (ip), vehicle: saline with Tween-80
  survivor count: 0 of 7
T/C endpoint: mean survival time, dose: 800.0 mg/kg/injection, schedule: Q01DX009 (oral), vehicle: saline with Tween-80
  survivor count: 3 of 7
T/C endpoint: mean survival time, dose: 800.0 mg/kg/injection, schedule: Q03HX008 (oral), vehicle: saline with Tween-80
  survivor count: 0 of 8
T/C endpoint: mean survival time, dose: 800.0 mg/kg/injection, schedule: Q03HX016 (oral), vehicle: saline with Tween-80
  survivor count: 0 of 8
T/C endpoint: mean survival time, dose: 800.0 mg/kg/injection, schedule: Q03HX024 (oral), vehicle: saline with Tween-80
  survivor count: 0 of 8
T/C endpoint: mean survival time, dose: 800.0 mg/kg/injection, schedule: Q04DX003 (oral), vehicle: saline with Tween-80
  survivor count: 1 of 8
T/C endpoint: mean survival time, dose: 960.0 mg/kg/injection, schedule: Q01DX001 (oral), vehicle: other
  survivor count: 5 of 10
T/C endpoint: mean survival time, dose: 1280.0 mg/kg/injection, schedule: Q01DX001 (oral), vehicle: other
  survivor count: 4 of 10
T/C endpoint: median survival time, dose: 2.0 mg/kg/injection, schedule: Q01DX009 (ip), vehicle: clinical formulation
  survivor count: 10 of 10
T/C endpoint: median survival time, dose: 128.0 mg/kg/injection, schedule: Q01DX001 (ip), vehicle: clinical formulation
  survivor count: 5 of 10
T/C endpoint: median survival time, dose: 128.0 mg/kg/injection, schedule: Q08DX002 (ip), vehicle: clinical formulation
  survivor count: 5 of 10
T/C endpoint: median survival time, dose: 800.0 mg/kg/injection, schedule: Q01DX009 (sc), vehicle: steroid suspending solution
  T/C: 138 % of control

## COS(C)(=O)=O
T/C endpoint: mean survival time, dose: 200.0 mg/kg/injection, schedule: Q01DX Z (ip), vehicle: carboxymethylcellulose (CMC)
  survivor count: 0 of 6
